Laboratory results: PubChem BioAssay AID1259405 (NCATS, 2018)
Aim: 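Silenced genes that increase secreted GFP made by CHO cells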 (primary screen). Cells: Chinese hamster CHO-K1 ovary cells with stable secreted eGFP expression. Reagents: single siRNA against mouse genes, 0.8 pmol siRNA per well (2 µl of 400 nM stock). Timing: 3 days. Detection: 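Percent of the per-plate non-targeting control median for intracellular GFP per well by laser scanning cytometry and for cell viability by ATP luminescence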. Scale: GFP, % of control: higher = more GFP per well, higher productivity; viability (ATP), % of control: higher = more viable cells (more ATP). Hit rule: 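Called active when intracellular GFP, relative to negative control, is at or above 120%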.
This is one part, drawn at random, of about 50,000 deposited reagents. In the full data, about 4,000 (8%) got an active call. 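Mouse siRNA library applied to hamster cells; one well for each siRNA.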 The numbers tell different reagents against one gene apart. No sequences are given here.

Pou2f3 (POU domain, class 2, transcription factor 3) #1
- GFP, % of control: 107
- viability (ATP), % of control: 134
- outcome: inactive

Pou2f3 (POU domain, class 2, transcription factor 3) #2
- GFP, % of control: 86.2
- viability (ATP), % of control: 90
- outcome: inactive

Pou2f3 (POU domain, class 2, transcription factor 3) #3
- GFP, % of control: 63.6
- viability (ATP), % of control: 73
- outcome: inactive

Phpt1 (phosphohistidine phosphatase 1) #1
- GFP, % of control: 93.4
- viability (ATP), % of control: 66
- outcome: inactive

Phpt1 (phosphohistidine phosphatase 1) #2
- GFP, % of control: 51.2
- viability (ATP), % of control: 53.1
- outcome: inactive

Otulinl (OTU deubiquitinase with linear linkage specificity like) #1
- GFP, % of control: 96.6
- viability (ATP), % of control: 91.2
- outcome: inactive

Otulinl (OTU deubiquitinase with linear linkage specificity like) #2
- GFP, % of control: 79.5
- viability (ATP), % of control: 110
- outcome: inactive

Otulinl (OTU deubiquitinase with linear linkage specificity like) #3
- GFP, % of control: 160
- viability (ATP), % of control: 152
- outcome: active

Renbp (renin binding protein) #1
- GFP, % of control: 128
- viability (ATP), % of control: 98.3
- outcome: active

Renbp (renin binding protein) #2
- GFP, % of control: 49.7
- viability (ATP), % of control: 68.9
- outcome: inactive

Renbp (renin binding protein) #3
- GFP, % of control: 67.6
- viability (ATP), % of control: 69.4
- outcome: inactive

The list goes on (4 carried over from the part before).
Otulinl (OTU deubiquitinase with linear linkage specificity like) #3
- GFP, % of control: 160
- viability (ATP), % of control: 152
- outcome: active

Renbp (renin binding protein) #1
- GFP, % of control: 128
- viability (ATP), % of control: 98.3
- outcome: active

Renbp (renin binding protein) #2
- GFP, % of control: 49.7
- viability (ATP), % of control: 68.9
- outcome: inactive

Renbp (renin binding protein) #3
- GFP, % of control: 67.6
- viability (ATP), % of control: 69.4
- outcome: inactive

Opn5 (opsin 5) #1
- GFP, % of control: 54.1
- viability (ATP), % of control: 27.7
- outcome: inactive

Opn5 (opsin 5) #2
- GFP, % of control: 58.8
- viability (ATP), % of control: 77.8
- outcome: inactive

Opn5 (opsin 5) #3
- GFP, % of control: 85.5
- viability (ATP), % of control: 65.9
- outcome: inactive

Txndc8 (thioredoxin domain containing 8) #1
- GFP, % of control: 45.9
- viability (ATP), % of control: 52.3
- outcome: inactive

Txndc8 (thioredoxin domain containing 8) #2
- GFP, % of control: 79
- viability (ATP), % of control: 45.3
- outcome: inactive

Txndc8 (thioredoxin domain containing 8) #3
- GFP, % of control: 69.6
- viability (ATP), % of control: 81.9
- outcome: inactive

Klrb1a (killer cell lectin-like receptor subfamily B member 1A) #1
- GFP, % of control: 34.9
- viability (ATP), % of control: 29.1
- outcome: inactive

Klrb1a (killer cell lectin-like receptor subfamily B member 1A) #2
- GFP, % of control: 92.6
- viability (ATP), % of control: 78
- outcome: inactive

Klrb1a (killer cell lectin-like receptor subfamily B member 1A) #3
- GFP, % of control: 61.7
- viability (ATP), % of control: 64.2
- outcome: inactive

Ldb2 (LIM domain binding 2) #1
- GFP, % of control: 142
- viability (ATP), % of control: 125
- outcome: active

Ldb2 (LIM domain binding 2) #2
- GFP, % of control: 38.8
- viability (ATP), % of control: 39.7
- outcome: inactive

Ldb2 (LIM domain binding 2) #3
- GFP, % of control: 96.6
- viability (ATP), % of control: 99.1
- outcome: inactive

Txlnb (taxilin beta) #1
- GFP, % of control: 70.4
- viability (ATP), % of control: 65.7
- outcome: inactive

Txlnb (taxilin beta) #2
- GFP, % of control: 76.5
- viability (ATP), % of control: 76.1
- outcome: inactive

Txlnb (taxilin beta) #3
- GFP, % of control: 64.2
- viability (ATP), % of control: 61.4
- outcome: inactive

Esrrb (estrogen related receptor, beta) #1
- GFP, % of control: 91.6
- viability (ATP), % of control: 64.8
- outcome: inactive

Esrrb (estrogen related receptor, beta) #2
- GFP, % of control: 154
- viability (ATP), % of control: 90.4
- outcome: active
